We go through five substances from patent US20250367314 (published 2025).

The series can be described thus: general procedure: solution-phase peptide synthesis; DCC; HATU. The conditions noted are these: for step yield: late stage modification step.

In turn, “(S)-4-(11-benzyl-1-(9H-fluoren-9-yl)-3,6,9,12-tetraoxo-2-oxa-4,7,10,13-tetraazapentadecan-15-amido)benzyl(2-(3-fluorophenyl)-6-methoxy-4-oxo-1,4-dihydroquinolin-5-yl)ethane-1,2-diylbis(methylcarbamate)” showed a conjugation yield (conjugation step) of 36% yield. “(9H-fluoren-9-yl)methyl(S)-(2-((2-((1-((2-((4-((((4-nitrophenoxy)carbonyl)oxy)methyl)phenyl)amino)-2-oxoethyl)amino)-1-oxo-3-phenylpropan-2-yl)amino)-2-oxoethyl)amino)-2-oxoethyl)carbamate” displayed a step yield of 61% yield. On the same count and under the same terms, in the case of “(S)-4-(2-(2-(2-(2-aminoacetamido)acetamido)-3-phenylpropanamido)acetamido)benzyl(2-(3-fluorophenyl)-6-methoxy-4-oxo-1,4-dihydroquinolin-5-yl)ethane-1,2-diylbis(methylcarbamate)” it was 77% yield; in that of “(9H-fluoren-9-yl)methyl(S)-(2-((2-((1-((2-((4-(hydroxymethyl)phenyl)amino)-2-oxoethyl)amino)-1-oxo-3-phenylpropan-2-yl)amino)-2-oxoethyl)amino)-2-oxoethyl)carbamate”, 58% yield; in that of “(S)-2-(2-(2-aminoacetamido)acetamido)-N-(2-((4-(hydroxymethyl)phenyl)amino)-2-oxoethyl)-3-phenylpropanamide”, 95% yield.
